From the supplement of paper PMC12823440, “Inhibitors supercharge kinase turnover through native proteolytic circuits” (Nature, 2025)
Where a name gives a salt, the structure may show the parent alone. The list shows a part of the results. The calls rarely recur for the same compound in another form.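 Kinases, fused to nanoluciferase, were expressed in K562 cells; luminescence was measured every 4 h from 2 to 18 h as percent of control (DMSO = 100%, positive control = 0%). A time point is decreased if signal falls significantly (2 sigma). Hits were called by the authors by a rule that is not shown; the count of time points alone does not decide it.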

Sequences of proteins named here, by UniProt entry; tags and fusion partners are left off. A change or cut given only in a name is not applied to a line headed by its entry.
UniProt P42680: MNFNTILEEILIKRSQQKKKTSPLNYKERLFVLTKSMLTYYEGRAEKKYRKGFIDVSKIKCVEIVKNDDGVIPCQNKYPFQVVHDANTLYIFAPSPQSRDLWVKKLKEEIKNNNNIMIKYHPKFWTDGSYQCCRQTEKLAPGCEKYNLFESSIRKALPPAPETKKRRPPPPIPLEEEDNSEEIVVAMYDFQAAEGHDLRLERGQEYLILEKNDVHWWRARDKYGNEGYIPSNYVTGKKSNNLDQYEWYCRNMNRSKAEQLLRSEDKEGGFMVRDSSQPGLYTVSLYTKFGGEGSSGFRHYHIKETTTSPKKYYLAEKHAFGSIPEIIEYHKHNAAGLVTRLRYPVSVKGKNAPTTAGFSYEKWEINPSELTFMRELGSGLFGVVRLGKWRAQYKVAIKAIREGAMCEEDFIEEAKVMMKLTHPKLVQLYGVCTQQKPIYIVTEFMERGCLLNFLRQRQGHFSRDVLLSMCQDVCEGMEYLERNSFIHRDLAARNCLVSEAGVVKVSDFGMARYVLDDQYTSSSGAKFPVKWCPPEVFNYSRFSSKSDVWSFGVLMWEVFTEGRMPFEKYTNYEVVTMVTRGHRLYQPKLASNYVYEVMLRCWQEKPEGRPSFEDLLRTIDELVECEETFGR

Molecular target: TEC (UniProt P42680)
Assay: number of time points (of 5) at which kinase-Nluc abundance scored as decreased, DMSO-normalised (count); higher = more persistent destabilization
Conditions: K562; 2-18 h

SMILES	number of time points
Cn1cc(-c2cc(Oc3cc(F)c(NC(=O)C4(C(=O)Nc5ccccc5)CC4)cc3F)ccn2)cn1 (2.5 µM)	0
Nc1[nH]nc2nc(-c3ccc(NS(=O)(=O)c4cc(Cl)ccc4Cl)cc3)cnc12 (10 µM)	0
Cc1cccc(/C=N/Nc2cc(N3CCOCC3)n3nc(-c4ccncc4)cc3n2)c1 (10 µM)	0
CC(C)n1ncnc1-c1cn2c(n1)-c1ccc(O[C@@H](C)C(N)=O)cc1OCC2 (10 µM)	0
COC(=O)[C@H](CCSC)NC(=O)c1ccc(NC[C@@H](N)CS)cc1-c1ccccc1 [FTI-277 (hydrochloride)] (10 µM)	0
O=C(Nc1cccc(-c2nc(-c3ccc(NC(=O)c4cccnc4)cc3Cl)no2)c1)Nc1ccc(NC(=O)C2CC2)c(C(F)(F)F)c1 (2.5 µM)	0
CN1CCN(c2cc(-c3ccncc3)c(-c3ccc4ccccc4c3)nn2)CC1 (10 µM)	0
CNC(=O)c1ccc2c(c1)ncn2-c1ccc(CC(=O)OC(C)(C)C)cc1 (10 µM)	0
O=C(O)[C@H]1O[C@@H](Oc2cc3oc(-c4ccc(O)cc4)cc(=O)c3c(O)c2O)[C@H](O)[C@@H](O)[C@@H]1O [Scutellarin] (10 µM)	0
Cc1nn(C)cc1-c1nc2c(N3CCN(Cc4ccc(Cl)cc4)CC3)c(Cl)cnc2[nH]1 (10 µM)	0
Cc1cc(CSc2ccccc2C(=O)NCCNc2ccc(C(F)(F)F)cc2[N+](=O)[O-])on1 (10 µM)	0
NC(=O)c1cnc(-c2ccc(C3(N)CCC3)cc2)c(-c2ccccc2)c1 (10 µM)	0
CCCCCC(=O)N[C@@H](Cc1ccc(O)cc1)C(=O)OC (10 µM)	0
CNC(=O)c1ccc2c(C(=Nc3cccc(CN(C)C)c3)c3ccccc3)c(O)[nH]c2c1 [MEK inhibitor] (10 µM)	0
COc1cc2ncnc(Nc3cccc(I)c3)c2cc1OC (2.5 µM)	0
COc1c(O)cc2oc(-c3ccc(O)cc3)cc(=O)c2c1O [Hispidulin] (10 µM)	0
CC(C)=CC[C@@H](O)C1=CC(=O)c2c(O)ccc(O)c2C1=O [Shikonin] (10 µM)	0
N[C@@H]1CCCN(c2c(/C=C3\SC(=O)NC3=O)cccc2-c2ccccc2)C1 (10 µM)	0
NC(=O)c1ccc(N(C(N)=O)c2c(F)cccc2F)nc1-c1ccc(F)cc1F (10 µM)	0

Compounds above that have an NH in an aromatic ring, in the order listed:
SMILES	number of time points
Nc1[nH]nc2nc(-c3ccc(NS(=O)(=O)c4cc(Cl)ccc4Cl)cc3)cnc12 (10 µM)	0
Cc1nn(C)cc1-c1nc2c(N3CCN(Cc4ccc(Cl)cc4)CC3)c(Cl)cnc2[nH]1 (10 µM)	0
CNC(=O)c1ccc2c(C(=Nc3cccc(CN(C)C)c3)c3ccccc3)c(O)[nH]c2c1 [MEK inhibitor] (10 µM)	0

(more compounds)

SMILES	number of time points
NC1(C(=O)NCCCn2cc(-c3ccc(OC(F)(F)F)cc3)c3cc(CN4CCN(Cc5c(Cl)cccc5Cl)CC4)ccc32)CCNCC1 (2.5 µM)	0
Cc1cc(O)c2c(c1)C(=O)c1cccc(O)c1C2=O [Chrysophanol] (2 µM)	0
COc1cc2nccc(Oc3ccc(NC(=O)c4cn(C(C)C)c(=O)n(-c5ccc(F)cc5)c4=O)cc3F)c2cc1OC (0.5 µM)	0
O=C(Nc1cccnc1)c1cc(-c2ccnc(F)c2)ccc1OCc1ccccc1 (10 µM)	0
NC[C@@](O)(c1ccc(Cl)cc1)c1ccc(-c2cn[nH]c2)cc1 (10 µM)	0
O=C1NC(=O)/C(=C\c2c[nH]c(=O)c(-c3ccc(N4CCNCC4)nc3)c2)S1 [Protein kinase inhibitors 1 hydrochloride] (10 µM)	0
C[C@@H](Nc1ncnc2[nH]c(-c3ccc(O)cc3)cc12)c1ccccc1 (2.5 µM)	0
Cc1ccc(C(=O)NC2CC2)cc1-n1ncc(C(=O)c2cccc(C#N)c2)c1N [Acumapimod] (10 µM)	0
C[C@H]1O[C@@H](O[C@H]2CC[C@@]3(C)[C@@H](CC[C@]4(C)[C@@H]3C=C[C@]35OC[C@@]6(CCC(C)(C)C[C@H]63)[C@H](O)C[C@]54C)[C@]2(C)CO)[C@H](O)[C@@H](O[C@@H]2O[C@H](CO)[C@@H](O)[C@H](O)[C@H]2O)[C@H]1O [Saikosaponin D] (2.5 µM)	0
N#Cc1ccc(-c2cnc3[nH]cc(NC(=O)c4cccnc4)c3c2)cc1 (10 µM)	0
CCCCCc1ccc(/C=C/[C@H](O)[C@@H](CO)NC)cc1 [SK1-I (hydrochloride)] (10 µM)	0
COc1ccc2c3n(c(=NC(=O)c4cccnc4)nc2c1OC)CCN3 (2 µM)	0
CN1CCN(c2ccc(Nc3ncc4cc(C#N)c(=O)n(C5CCCC5)c4n3)cc2)CC1 (10 µM)	0
COc1ccc(S(=O)(=O)Nc2cc(-c3c(O)ccc4ccccc34)c(O)c3ccccc23)cc1 (10 µM)	0
CC(C)(C)Cc1[nH]nc2c1[C@@](C)(c1ccccc1)C1=C(CC(C)(C)CC1=O)N2 (10 µM)	0
Cn1c2cc([S+](C)[O-])sc2c2cnn(Cc3cccc(N)c3)c(=O)c21 (stereo not drawn) (2.5 µM)	0
Nc1ncc(-c2ccnc(Nc3ccncc3)n2)c(CC2CC2)n1 (10 µM)	2
O=C(NCCN1CCOCC1)Nc1nc2ccc(Sc3nnc4ccc(-c5ccc(F)cc5)nn34)cc2s1 (10 µM)	0
CC(C)Oc1ccc(F)c(-c2cnc(N)c(C(=O)Nc3cnccc3N3CCC[C@@H](C(=O)O)C3)n2)c1 (2 µM)	1
